According to the supplement of paper PMC10849652:
Some of the results follow.

Sequences of proteins named here, by UniProt entry; tags and fusion partners are left off. A change or cut given only in a name is not applied to a line headed by its entry.
UniProt Q9BWT6: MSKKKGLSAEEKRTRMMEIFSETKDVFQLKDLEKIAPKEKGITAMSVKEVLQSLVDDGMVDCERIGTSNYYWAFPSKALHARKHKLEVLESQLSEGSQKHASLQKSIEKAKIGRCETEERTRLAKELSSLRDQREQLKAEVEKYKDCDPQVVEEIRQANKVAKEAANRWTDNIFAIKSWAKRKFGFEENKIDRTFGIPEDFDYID
UniProt O95563: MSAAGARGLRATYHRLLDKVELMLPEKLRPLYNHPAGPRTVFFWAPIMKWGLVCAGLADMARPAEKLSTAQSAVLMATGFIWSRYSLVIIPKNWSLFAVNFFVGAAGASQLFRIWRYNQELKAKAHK
UniProt Q9UNW1: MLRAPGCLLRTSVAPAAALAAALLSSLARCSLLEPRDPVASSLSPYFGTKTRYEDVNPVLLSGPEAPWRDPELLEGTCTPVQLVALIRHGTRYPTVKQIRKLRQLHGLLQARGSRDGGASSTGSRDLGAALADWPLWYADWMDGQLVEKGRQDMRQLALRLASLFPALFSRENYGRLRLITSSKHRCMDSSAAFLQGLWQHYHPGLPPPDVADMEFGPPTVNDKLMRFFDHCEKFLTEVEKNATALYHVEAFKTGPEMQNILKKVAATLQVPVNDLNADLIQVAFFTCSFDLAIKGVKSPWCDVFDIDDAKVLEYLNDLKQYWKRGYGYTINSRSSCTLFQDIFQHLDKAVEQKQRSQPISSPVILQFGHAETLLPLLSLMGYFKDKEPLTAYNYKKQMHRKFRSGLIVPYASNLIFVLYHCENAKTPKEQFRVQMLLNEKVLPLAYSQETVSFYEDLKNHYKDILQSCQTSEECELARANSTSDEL
UniProt P25325: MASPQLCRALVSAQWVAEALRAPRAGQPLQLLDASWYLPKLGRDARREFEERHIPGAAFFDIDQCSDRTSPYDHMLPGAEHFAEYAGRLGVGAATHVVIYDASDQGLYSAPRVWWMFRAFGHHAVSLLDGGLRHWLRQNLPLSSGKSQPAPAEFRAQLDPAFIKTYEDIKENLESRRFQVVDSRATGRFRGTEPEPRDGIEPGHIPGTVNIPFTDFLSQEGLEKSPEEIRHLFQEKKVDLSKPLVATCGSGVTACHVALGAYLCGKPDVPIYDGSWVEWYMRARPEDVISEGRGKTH
UniProt Q7RTP6, whole entry, looked up: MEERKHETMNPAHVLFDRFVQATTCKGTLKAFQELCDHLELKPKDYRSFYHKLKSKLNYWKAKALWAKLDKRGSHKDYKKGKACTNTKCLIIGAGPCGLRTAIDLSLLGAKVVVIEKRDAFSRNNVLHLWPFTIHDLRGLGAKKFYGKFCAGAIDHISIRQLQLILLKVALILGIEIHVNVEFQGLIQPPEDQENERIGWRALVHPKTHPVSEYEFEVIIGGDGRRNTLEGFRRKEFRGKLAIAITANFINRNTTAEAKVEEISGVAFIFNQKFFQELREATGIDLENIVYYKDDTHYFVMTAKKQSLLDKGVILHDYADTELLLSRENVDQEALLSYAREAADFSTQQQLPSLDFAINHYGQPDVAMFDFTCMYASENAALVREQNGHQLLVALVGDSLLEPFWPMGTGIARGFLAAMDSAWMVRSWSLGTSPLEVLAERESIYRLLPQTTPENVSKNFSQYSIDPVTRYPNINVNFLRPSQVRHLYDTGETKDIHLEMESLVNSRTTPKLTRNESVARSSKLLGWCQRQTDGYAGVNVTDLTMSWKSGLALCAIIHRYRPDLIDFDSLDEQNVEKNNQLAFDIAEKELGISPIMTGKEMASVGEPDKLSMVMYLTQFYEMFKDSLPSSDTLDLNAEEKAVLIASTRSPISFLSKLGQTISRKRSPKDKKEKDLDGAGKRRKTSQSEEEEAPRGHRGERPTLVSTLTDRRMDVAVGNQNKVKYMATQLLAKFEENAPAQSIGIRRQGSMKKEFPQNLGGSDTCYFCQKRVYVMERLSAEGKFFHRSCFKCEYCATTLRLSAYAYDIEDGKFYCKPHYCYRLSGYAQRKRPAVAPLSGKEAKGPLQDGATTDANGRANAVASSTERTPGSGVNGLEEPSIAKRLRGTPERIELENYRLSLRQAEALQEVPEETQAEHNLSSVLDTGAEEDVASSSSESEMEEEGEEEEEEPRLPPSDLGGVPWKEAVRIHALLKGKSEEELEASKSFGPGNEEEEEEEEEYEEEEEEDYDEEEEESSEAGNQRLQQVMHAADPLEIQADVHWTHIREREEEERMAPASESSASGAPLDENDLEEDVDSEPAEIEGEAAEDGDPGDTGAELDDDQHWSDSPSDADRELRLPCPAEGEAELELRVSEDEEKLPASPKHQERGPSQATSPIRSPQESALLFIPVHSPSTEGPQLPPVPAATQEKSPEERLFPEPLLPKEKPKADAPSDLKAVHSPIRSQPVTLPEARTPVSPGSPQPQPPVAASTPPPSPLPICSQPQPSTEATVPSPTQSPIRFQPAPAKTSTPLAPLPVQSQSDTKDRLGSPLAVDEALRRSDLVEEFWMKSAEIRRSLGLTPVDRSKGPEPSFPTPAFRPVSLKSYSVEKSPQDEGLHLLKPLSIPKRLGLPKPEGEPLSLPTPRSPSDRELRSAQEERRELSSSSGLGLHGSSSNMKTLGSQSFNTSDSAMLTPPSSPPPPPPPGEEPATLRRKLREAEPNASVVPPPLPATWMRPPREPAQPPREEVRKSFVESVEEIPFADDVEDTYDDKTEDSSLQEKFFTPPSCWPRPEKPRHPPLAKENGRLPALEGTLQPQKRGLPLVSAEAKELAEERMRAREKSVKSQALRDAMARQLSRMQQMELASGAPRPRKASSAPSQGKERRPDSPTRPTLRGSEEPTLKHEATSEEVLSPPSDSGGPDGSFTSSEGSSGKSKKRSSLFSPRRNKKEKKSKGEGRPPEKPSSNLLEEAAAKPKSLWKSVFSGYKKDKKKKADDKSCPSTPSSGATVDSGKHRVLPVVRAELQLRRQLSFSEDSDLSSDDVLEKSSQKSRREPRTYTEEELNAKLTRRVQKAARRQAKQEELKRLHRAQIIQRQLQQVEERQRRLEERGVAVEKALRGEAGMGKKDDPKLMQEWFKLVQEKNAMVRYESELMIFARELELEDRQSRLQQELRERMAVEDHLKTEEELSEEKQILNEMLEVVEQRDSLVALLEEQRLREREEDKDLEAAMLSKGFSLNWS
UniProt A9UHW6: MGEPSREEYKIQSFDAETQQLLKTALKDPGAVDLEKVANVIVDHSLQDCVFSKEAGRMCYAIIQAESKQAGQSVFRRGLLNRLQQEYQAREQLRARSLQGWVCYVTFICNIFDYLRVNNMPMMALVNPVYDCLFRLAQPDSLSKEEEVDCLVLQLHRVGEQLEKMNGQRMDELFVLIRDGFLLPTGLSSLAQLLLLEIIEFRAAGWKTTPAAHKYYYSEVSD
UniProt Q99735: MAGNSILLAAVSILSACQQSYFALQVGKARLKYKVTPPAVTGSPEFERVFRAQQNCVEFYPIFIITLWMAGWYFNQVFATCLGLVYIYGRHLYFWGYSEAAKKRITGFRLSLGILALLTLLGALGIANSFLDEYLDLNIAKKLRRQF
UniProt Q7Z3U7: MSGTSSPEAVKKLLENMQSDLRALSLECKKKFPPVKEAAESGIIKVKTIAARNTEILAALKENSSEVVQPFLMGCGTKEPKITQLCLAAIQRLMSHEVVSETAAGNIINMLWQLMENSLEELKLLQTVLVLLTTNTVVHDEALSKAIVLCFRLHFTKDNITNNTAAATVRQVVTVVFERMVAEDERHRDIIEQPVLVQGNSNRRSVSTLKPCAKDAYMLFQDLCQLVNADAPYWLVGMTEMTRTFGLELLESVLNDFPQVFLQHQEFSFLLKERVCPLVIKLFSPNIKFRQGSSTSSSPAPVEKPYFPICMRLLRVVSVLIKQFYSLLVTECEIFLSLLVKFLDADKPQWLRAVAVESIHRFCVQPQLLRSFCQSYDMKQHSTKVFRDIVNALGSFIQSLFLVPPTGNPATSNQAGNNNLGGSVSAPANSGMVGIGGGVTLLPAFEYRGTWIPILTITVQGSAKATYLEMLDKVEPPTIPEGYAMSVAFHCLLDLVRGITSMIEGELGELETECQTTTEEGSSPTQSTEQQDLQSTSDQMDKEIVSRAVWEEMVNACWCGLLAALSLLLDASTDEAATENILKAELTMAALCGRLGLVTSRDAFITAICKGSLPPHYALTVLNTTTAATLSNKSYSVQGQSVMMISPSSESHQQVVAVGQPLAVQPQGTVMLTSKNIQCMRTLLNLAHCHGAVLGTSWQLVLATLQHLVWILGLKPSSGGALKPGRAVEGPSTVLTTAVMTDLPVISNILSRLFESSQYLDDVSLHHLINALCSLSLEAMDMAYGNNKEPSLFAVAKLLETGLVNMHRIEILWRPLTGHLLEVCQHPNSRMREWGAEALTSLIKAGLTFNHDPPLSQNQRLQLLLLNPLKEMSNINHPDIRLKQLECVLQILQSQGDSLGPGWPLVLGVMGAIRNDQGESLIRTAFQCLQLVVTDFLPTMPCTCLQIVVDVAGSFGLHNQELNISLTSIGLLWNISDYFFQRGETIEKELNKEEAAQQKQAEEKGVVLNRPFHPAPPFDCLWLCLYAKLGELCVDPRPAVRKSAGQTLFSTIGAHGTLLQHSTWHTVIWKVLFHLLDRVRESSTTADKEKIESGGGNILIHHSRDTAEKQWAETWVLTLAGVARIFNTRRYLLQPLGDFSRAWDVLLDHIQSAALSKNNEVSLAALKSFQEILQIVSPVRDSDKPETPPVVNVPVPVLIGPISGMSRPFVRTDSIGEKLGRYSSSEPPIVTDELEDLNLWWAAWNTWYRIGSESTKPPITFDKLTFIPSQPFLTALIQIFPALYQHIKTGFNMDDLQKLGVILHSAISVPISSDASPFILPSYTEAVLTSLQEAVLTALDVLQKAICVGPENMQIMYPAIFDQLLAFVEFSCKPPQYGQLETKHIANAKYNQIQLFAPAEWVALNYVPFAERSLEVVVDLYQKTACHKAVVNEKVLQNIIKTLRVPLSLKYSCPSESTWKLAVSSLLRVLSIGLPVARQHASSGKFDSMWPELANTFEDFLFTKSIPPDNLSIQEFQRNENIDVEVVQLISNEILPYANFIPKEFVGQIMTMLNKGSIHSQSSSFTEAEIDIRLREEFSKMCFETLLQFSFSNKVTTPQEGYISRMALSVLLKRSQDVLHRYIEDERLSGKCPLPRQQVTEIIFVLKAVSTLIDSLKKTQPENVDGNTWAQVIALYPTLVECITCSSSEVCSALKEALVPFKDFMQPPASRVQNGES
UniProt Q8N3F8: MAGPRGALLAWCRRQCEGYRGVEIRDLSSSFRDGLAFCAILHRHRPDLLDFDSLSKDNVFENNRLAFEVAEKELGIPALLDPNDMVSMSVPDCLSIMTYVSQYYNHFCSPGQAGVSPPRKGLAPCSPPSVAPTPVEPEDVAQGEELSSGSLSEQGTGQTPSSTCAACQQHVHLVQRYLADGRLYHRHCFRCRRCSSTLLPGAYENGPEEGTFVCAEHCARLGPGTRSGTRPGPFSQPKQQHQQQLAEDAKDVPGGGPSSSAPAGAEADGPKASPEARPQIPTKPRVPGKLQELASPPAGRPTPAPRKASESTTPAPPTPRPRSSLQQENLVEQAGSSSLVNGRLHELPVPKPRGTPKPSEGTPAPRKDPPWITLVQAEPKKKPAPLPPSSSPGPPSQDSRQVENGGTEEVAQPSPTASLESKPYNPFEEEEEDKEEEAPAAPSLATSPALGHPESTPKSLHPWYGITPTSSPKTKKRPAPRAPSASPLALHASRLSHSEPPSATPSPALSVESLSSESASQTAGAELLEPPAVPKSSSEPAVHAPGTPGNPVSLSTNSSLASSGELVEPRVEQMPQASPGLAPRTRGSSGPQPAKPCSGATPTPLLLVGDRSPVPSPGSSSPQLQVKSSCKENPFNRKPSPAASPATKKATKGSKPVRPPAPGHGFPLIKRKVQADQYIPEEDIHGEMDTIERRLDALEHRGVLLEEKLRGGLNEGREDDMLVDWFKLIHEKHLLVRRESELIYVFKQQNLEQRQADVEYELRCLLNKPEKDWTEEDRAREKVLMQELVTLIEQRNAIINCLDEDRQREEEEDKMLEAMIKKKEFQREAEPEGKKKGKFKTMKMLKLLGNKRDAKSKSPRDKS
UniProt O96007: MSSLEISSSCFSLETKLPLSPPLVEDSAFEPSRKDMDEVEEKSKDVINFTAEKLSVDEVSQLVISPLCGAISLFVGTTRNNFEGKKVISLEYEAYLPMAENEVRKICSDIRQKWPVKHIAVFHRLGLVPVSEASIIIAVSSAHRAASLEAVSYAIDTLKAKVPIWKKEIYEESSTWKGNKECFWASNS
UniProt Q7L9L4: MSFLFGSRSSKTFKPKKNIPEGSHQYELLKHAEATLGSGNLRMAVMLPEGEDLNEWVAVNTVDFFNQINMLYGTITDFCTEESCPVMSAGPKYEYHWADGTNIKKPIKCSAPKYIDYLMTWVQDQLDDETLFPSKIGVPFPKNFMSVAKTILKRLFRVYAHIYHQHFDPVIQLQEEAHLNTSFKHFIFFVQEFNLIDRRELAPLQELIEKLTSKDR

Experiments:
Test in all cases: log2 fold change, soluble protein after heating vs DMSO (PISA); higher = thermal stabilisation; K562 lysate, 10 uM; active = over 0.2 and 3.5 SD of the protein, either way, in both replicates (recomputed)
erlotinib = compound: C#Cc1cccc(Nc2ncnc3cc(OCCOC)c(OCCOC)cc23)c1 [erlotinib]
How it was run: (§1)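 Thermal stability, expressed as log-two fold change relative to solvent controls, is given from duplicates. Crude K562 extract in PBS pH 7.4 with 1 mM MgCl2, at 1 mg/mL protein, was treated with 10 μM compound for 30 min and heated in aliquots for 3 min across 48°C-58°C. After pooling, adjustment to 0.5% NP-40 at 4°C and centrifugation at 21,000xg for 90 min, supernatant protein was measured by TMTpro 16plex LC-MS/MS with channel sums equalised.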

[1] = compound: C/C(=N\NC(=O)C1=CC(=CC=C1)S(=O)(=O)N2CCOCC2)/C3=C(C=CC(=C3)Cl)O
How it was run: as §1

[2] = compound: C1=CC(=CC=C1C2=NC3=C(N2)C=C(C=C3)C(=O)N)OC4=CC=C(C=C4)Cl
How it was run: as §1

[3] = compound: C1=CC2=C(C=CC(=C2)/C=C\3/C(=O)NC(=NCC4=CC=CS4)S3)N=C1
How it was run: as §1

[4] = compound: C1=CC2=NC=CN=C2C=C1/C=C/3\C(=O)NC(=O)S3
How it was run: as §1

[5] = compound: C1=CC=C(C=C1)C2=NC(=C(N2)C3=CC=NC=C3)C4=CC(=C(C=C4)Cl)O
How it was run: as §1

[6] = compound: C1=CC=C2C(=C1)C3=NNC4=CC=CC(=C43)C2=O
How it was run: as §1

[7] = compound: C1CCN(C1)C(=O)NC2=CC=CC(=C2)NC3=NC=C(C(=N3)NCCC4=CN=CN4)Br
How it was run: as §1

[8] = compound: C1CN(CCC1(CC2=CC=C(C=C2)Cl)N)C3=NC=NC4=C3C=CN4
How it was run: as §1

IRAK-1-4 Inhibitor I = compound: C1COCCN1CCN2C3=CC=CC=C3N=C2NC(=O)C4=CC(=CC=C4)[N+](=O)[O-] [IRAK-1-4 Inhibitor I]
How it was run: as §1

Measured: log2 fold change

MPP5 (UniProt Q8N3R9)
inactive: erlotinib 0.039 | [1] -0.009 | [2] 0.027 | [3] -0.016 | [4] 0.038 | [5] 0.01 | [6] -0.038 | [7] -0.028 | [8] -0.013 | IRAK-1-4 Inhibitor I 0.085

MPHOSPH8 (UniProt Q99549)
inactive: erlotinib -0.234 | [1] 0.026 | [2] -0.214 | [3] 0.146 | [4] -0.23 | [5] 0.098 | [6] -0.111 | [7] -0.222 | [8] -0.034 | IRAK-1-4 Inhibitor I 0.073

MORF4L1 isoform 2 (UniProt Q9UBU8)
inactive: erlotinib 0.028 | [1] 0.06 | [2] 0.046 | [3] -0.027 | [4] -0.032 | [5] -0.005 | [6] 0.017 | [7] -0.04 | [8] -0.01 | IRAK-1-4 Inhibitor I 0.013

MPI (UniProt P34949)
inactive: erlotinib 0.02 | [1] 0.045 | [2] 0.046 | [3] -0.018 | [4] -0.014 | [5] 0.022 | [6] -0.02 | [7] -0.003 | [8] 0.038 | IRAK-1-4 Inhibitor I 0.035

MND1 (UniProt Q9BWT6)
inactive: erlotinib -0.035 | [1] -0.018 | [2] -0.002 | [3] -0.013 | [4] -0.008 | [5] 0.019 | [6] 0.062 | [7] 0.012 | [8] 0.005 | IRAK-1-4 Inhibitor I -0.01

MICB, A0A140T979
inactive: erlotinib 0.022 | [1] 0.086 | [2] -0.029 | [3] -0.07 | [4] -0.168 | [5] 0.034 | [6] 0.046 | [7] -0.021 | [8] 0.275 | IRAK-1-4 Inhibitor I 0.023

MPC2 (UniProt O95563)
inactive: erlotinib 0.016 | [1] -0.015 | [2] 0 | [3] -0.026 | [4] 0.037 | [5] 0.022 | [6] -0.025 | [7] -0.009 | [8] 0.035 | IRAK-1-4 Inhibitor I 0.044

MINPP1 (UniProt Q9UNW1)
inactive: erlotinib 0.004 | [1] -0.007 | [2] 0.021 | [3] 0.027 | [4] -0.011 | [5] 0.003 | [6] 0.026 | [7] 0.027 | [8] -0.027 | IRAK-1-4 Inhibitor I -0.017

MOB3A (UniProt Q96BX8)
inactive: erlotinib -0.067 | [1] -0.089 | [2] -0.06 | [3] 0.061 | [4] 0.045 | [5] 0.054 | [6] 0.11 | [7] 0.065 | [8] 0.014 | IRAK-1-4 Inhibitor I 0.032

MPST isoform 2 (UniProt P25325)
inactive: erlotinib 0.008 | [1] -0.005 | [2] 0.001 | [3] 0.027 | [4] 0.032 | [5] -0.028 | [6] 0.004 | [7] -0.025 | [8] 0.036 | IRAK-1-4 Inhibitor I -0.007

MMS19 isoform 8 (UniProt Q96T76)
inactive: erlotinib 0.026 | [1] -0.019 | [2] -0.016 | [3] -0.02 | [4] -0.009 | [5] 0.011 | [6] -0.099 | [7] 0.01 | [8] 0.034 | IRAK-1-4 Inhibitor I 0.004

MICAL3 (UniProt Q7RTP6)
inactive: erlotinib 0.024 | [1] -0.037 | [2] 0.027 | [3] -0.025 | [4] -0.023 | [5] -0.013 | [6] -0.006 | [7] -0.032 | [8] 0.039 | IRAK-1-4 Inhibitor I -0.001

MMADHC (UniProt Q9H3L0)
inactive: erlotinib 0.049 | [1] -0.005 | [2] 0.012 | [3] 0.012 | [4] 0 | [5] 0.004 | [6] 0.012 | [7] -0.001 | [8] 0.01 | IRAK-1-4 Inhibitor I 0.017

MIEF1 (UniProt Q9NQG6)
inactive: erlotinib 0.049 | [1] 0.001 | [2] -0.02 | [3] 0.024 | [4] 0.025 | [5] 0.038 | [6] -0.02 | [7] 0.007 | [8] 0.112 | IRAK-1-4 Inhibitor I 0.02

MIF4GD isoform 3 (UniProt A9UHW6)
inactive: erlotinib -0.006 | [1] 0.041 | [2] 0.03 | [3] 0.028 | [4] -0.073 | [5] 0.039 | [6] -0.03 | [7] -0.052 | [8] 0.051 | IRAK-1-4 Inhibitor I -0.04

MGST2 (UniProt Q99735)
inactive: erlotinib -0.03 | [1] 0 | [2] 0.099 | [3] 0.002 | [4] -0.002 | [5] -0.031 | [6] -0.089 | [7] -0.097 | [8] 0.185 | IRAK-1-4 Inhibitor I -0.031

MIA2 (UniProt Q96PC5)
inactive: erlotinib -0.083 | [1] -0.048 | [2] -0.019 | [3] 0.047 | [4] -0.047 | [5] -0.067 | [6] -0.028 | [7] -0.009 | [8] 0.02 | IRAK-1-4 Inhibitor I -0.008

MON2 isoform 5 (UniProt Q7Z3U7)
inactive: erlotinib 0.031 | [1] -0.031 | [2] -0.018 | [3] 0.019 | [4] 0.001 | [5] -0.016 | [6] -0.021 | [7] 0.012 | [8] 0.04 | IRAK-1-4 Inhibitor I 0.009

MICALL1 (UniProt Q8N3F8)
inactive: erlotinib -0.025 | [1] 0.01 | [2] 0.071 | [3] -0.053 | [4] -0.043 | [5] 0.004 | [6] -0.008 | [7] -0.02 | [8] 0.046 | IRAK-1-4 Inhibitor I -0.011

MICU2 (UniProt Q8IYU8)
inactive: erlotinib 0.025 | [1] 0.04 | [2] -0.008 | [3] -0.024 | [4] -0.011 | [5] 0.061 | [6] -0.094 | [7] -0.037 | [8] 0.038 | IRAK-1-4 Inhibitor I -0.044

MRPL10 isoform 2 (UniProt Q7Z7H8)
inactive: erlotinib -0.032 | [1] 0 | [2] 0.043 | [3] 0.022 | [4] -0.141 | [5] -0.002 | [6] -0.016 | [7] -0.062 | [8] 0.015 | IRAK-1-4 Inhibitor I 0.014

MOCS2 (UniProt O96007)
inactive: erlotinib 0.029 | [1] 0.003 | [2] 0.047 | [3] 0.038 | [4] -0.045 | [5] 0.02 | [6] 0.002 | [7] -0.003 | [8] -0.006 | IRAK-1-4 Inhibitor I 0.008

Two successive entries from above, for reference:
MIEF1 (UniProt Q9NQG6)
inactive: erlotinib 0.049 | [1] 0.001 | [2] -0.02 | [3] 0.024 | [4] 0.025 | [5] 0.038 | [6] -0.02 | [7] 0.007 | [8] 0.112 | IRAK-1-4 Inhibitor I 0.02

MIF4GD isoform 3 (UniProt A9UHW6)
inactive: erlotinib -0.006 | [1] 0.041 | [2] 0.03 | [3] 0.028 | [4] -0.073 | [5] 0.039 | [6] -0.03 | [7] -0.052 | [8] 0.051 | IRAK-1-4 Inhibitor I -0.04

(list continues)

MLX (UniProt Q9UH92)
inactive: erlotinib 0.091 | [1] -0.03 | [2] 0.003 | [3] -0.016 | [4] -0.029 | [5] 0.03 | [6] -0.096 | [7] -0.011 | [8] 0.023 | IRAK-1-4 Inhibitor I 0.021

MPLKIP (UniProt Q8TAP9)
inactive: erlotinib -0.074 | [1] -0.161 | [2] -0.049 | [3] 0.049 | [4] 0.031 | [5] -0.096 | [6] 0.01 | [7] -0.014 | [8] -0.019 | IRAK-1-4 Inhibitor I 0.043

MRPL15 (UniProt Q9P015)
inactive: erlotinib 0.037 | [1] -0.16 | [2] 0.051 | [3] -0.026 | [4] -0.055 | [5] -0.017 | [6] 0.004 | [7] -0.023 | [8] -0.016 | IRAK-1-4 Inhibitor I 0.034

MMUT (UniProt P22033)
inactive: erlotinib -0.018 | [1] 0.017 | [2] -0.003 | [3] 0.038 | [4] -0.045 | [5] -0.037 | [6] -0.009 | [7] -0.04 | [8] 0.052 | IRAK-1-4 Inhibitor I -0.017

MNAT1 (UniProt P51948)
inactive: erlotinib -0.014 | [1] -0.043 | [2] 0.025 | [3] -0.089 | [4] -0.009 | [5] -0.004 | [6] 0.022 | [7] -0.008 | [8] 0.048 | IRAK-1-4 Inhibitor I 0.012

MKRN2 (UniProt Q9H000)
inactive: erlotinib 0.017 | [1] -0.013 | [2] 0.041 | [3] -0.033 | [4] -0.025 | [5] 0.103 | [6] 0.014 | [7] -0.015 | [8] 0.028 | IRAK-1-4 Inhibitor I 0.019

MOB1B isoform 2 (UniProt Q7L9L4)
inactive: erlotinib -0.004 | [1] 0 | [2] 0.032 | [3] -0.018 | [4] 0.015 | [5] 0.013 | [6] -0.012 | [7] -0.01 | [8] 0.032 | IRAK-1-4 Inhibitor I 0.023
